Source: PMC11787431
Results are given in words; binding and its absence hold for the method and conditions named. Binding seen in cells or lysates may run through a third protein. Some results given as binding are weak or reduced against the parent protein; the word gives no strength. Sequences can lack the tags named with a protein.

By UniProt entry, the sequences of proteins in these tests, tags left out.
UniProt Q9UBN7: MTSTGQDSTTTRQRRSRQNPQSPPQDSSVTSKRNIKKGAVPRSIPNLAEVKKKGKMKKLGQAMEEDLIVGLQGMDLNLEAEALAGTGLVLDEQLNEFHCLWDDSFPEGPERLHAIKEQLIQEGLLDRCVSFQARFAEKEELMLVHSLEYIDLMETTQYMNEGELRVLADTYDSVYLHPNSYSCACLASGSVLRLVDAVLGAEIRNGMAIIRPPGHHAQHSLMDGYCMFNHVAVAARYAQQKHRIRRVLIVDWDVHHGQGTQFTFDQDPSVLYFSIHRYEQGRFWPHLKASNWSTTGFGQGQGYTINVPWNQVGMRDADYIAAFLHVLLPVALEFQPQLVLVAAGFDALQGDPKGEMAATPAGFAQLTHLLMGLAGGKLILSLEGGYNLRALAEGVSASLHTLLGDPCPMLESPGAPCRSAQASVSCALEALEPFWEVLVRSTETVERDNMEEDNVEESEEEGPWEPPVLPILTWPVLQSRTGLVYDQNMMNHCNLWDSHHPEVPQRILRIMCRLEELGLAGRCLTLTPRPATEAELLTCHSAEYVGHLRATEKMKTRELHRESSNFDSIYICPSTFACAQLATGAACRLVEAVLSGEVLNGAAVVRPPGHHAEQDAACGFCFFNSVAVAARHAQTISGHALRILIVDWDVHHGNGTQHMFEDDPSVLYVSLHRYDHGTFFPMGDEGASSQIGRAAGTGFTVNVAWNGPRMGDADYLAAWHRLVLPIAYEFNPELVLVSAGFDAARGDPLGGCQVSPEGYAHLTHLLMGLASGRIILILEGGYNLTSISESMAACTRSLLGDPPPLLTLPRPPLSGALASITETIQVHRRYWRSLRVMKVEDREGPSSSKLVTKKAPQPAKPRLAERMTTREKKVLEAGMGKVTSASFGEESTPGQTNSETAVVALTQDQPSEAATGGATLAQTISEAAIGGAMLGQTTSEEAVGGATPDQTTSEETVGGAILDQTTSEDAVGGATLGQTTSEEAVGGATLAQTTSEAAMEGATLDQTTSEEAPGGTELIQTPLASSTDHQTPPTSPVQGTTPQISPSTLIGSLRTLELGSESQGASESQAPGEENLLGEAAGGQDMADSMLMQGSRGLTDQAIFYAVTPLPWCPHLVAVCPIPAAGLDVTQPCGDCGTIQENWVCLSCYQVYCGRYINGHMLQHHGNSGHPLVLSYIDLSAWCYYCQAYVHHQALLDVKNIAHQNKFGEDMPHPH

T1: HA-TRAF4 (UniProt Q9BUZ4)
T1 sequence: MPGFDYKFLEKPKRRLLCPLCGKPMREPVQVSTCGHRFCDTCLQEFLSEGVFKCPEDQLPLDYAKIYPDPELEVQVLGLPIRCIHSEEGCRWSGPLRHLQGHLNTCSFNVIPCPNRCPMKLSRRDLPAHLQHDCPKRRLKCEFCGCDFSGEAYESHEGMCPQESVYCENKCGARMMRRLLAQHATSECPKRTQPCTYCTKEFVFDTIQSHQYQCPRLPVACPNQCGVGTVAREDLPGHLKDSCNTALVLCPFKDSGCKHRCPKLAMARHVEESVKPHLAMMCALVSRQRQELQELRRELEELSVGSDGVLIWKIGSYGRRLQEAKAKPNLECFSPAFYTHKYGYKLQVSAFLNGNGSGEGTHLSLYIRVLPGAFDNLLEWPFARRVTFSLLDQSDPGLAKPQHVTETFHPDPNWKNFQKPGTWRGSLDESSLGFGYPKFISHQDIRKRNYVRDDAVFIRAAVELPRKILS

T2: Tumor necrosis factor receptor-associated factor 4 (TRAF4), endogenous (mouse (endogenous in TS^KI cells and E13.5 embryos)) (UniProt Q61382)
T2 sequence: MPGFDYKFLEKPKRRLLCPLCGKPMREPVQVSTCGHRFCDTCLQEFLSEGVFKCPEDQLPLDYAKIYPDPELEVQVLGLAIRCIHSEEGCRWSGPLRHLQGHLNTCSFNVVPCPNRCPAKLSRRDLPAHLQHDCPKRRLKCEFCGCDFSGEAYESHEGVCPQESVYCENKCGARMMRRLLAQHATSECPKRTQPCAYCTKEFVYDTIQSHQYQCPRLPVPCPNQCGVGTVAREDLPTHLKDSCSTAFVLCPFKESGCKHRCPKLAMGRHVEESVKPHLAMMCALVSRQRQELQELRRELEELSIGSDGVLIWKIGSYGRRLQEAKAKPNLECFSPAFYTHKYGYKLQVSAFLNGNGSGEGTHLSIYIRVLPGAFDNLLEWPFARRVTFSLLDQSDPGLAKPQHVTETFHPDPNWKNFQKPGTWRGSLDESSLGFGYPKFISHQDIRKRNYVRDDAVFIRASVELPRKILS

B1: Histone deacetylase 6 (HDAC6), endogenous (enzyme, UniProt Q9Z2V5 1-1149)
chain: MTSTGQDSSTRQRKSRHNPQSPLQESSATLKRGGKKCAVPHSSPNLAEVKKKGKMKKLSQPAEEDLVVGLQGLDLNPETRVPVGTGLVFDEQLNDFHCLWDDSFPESPERLHAIREQLILEGLLGRCVSFQARFAEKEELMLVHSLEYIDLMETTQYMNEGELRVLAETYDSVYLHPNSYSCACLATGSVLRLVDALMGAEIRNGMAVIRPPGHHAQHNLMDGYCMFNHLAVAARYAQKKHRIQRVLIVDWDVHHGQGTQFIFDQDPSVLYFSIHRYEHGRFWPHLKASNWSTIGFGQGQGYTINVPWNQTGMRDADYIAAFLHILLPVASEFQPQLVLVAAGFDALHGDPKGEMAATPAGFAHLTHLLMGLAGGKLILSLEGGYNLRALAKGVSASLHTLLGDPCPMLESCVVPCASAQTSIYCTLEALEPFWEVLERSVETQEEDEVEEAVLEEEEEEGGWEATALPMDTWPLLQNRTGLVYDEKMMSHCNLWDNHHPETPQRILRIMCHLEEVGLAARCLILPARPALDSELLTCHSAEYVEHLRTTEKMKTRDLHREGANFDSIYICPSTFACAKLATGAACRLVEAVLSGEVLNGIAVVRPPGHHAEPNAACGFCFFNSVAVAARHAQIIAGRALRILIVDWDVHHGNGTQHIFEDDPSVLYVSLHRYDRGTFFPMGDEGASSQVGRDAGIGFTVNVPWNGPRMGDADYLAAWHRLVLPIAYEFNPELVLISAGFDAAQGDPLGGCQVTPEGYAHLTHLLMGLAGGRIILILEGGYNLASISESMAACTHSLLGDPPPQLTLLRPPQSGALVSISEVIQVHRKYWRSLRLMKMEDKEECSSSRLVIKKLPPTASPVSAKEMTTPKGKVPEESVRKTIAALPGKESTLGQAKSKMAKAVLAQGQSSEQAAKGTTLDLATSKETVGGATTDLWASAAAPENFPNQTTSVEALGETEPTPPASHTNKQTTGASPLQGVTAQQSLQLGVLSTLELSREAEEAHDSEEGLLGEAAGGQDMNSLMLTQGFGDFNTQDVFYAVTPLSWCPHLMAVCPIPAAGLDVSQPCKTCGTVQENWVCLTCYQVYCSRYVNAHMVCHHEASEHPLVLSCVDLSTWCYVCQAYVHHEDLQDVKNAAHQNKFGEDMPHSH

Key:
HA-TRAF4 = biological target: T1, HA-TRAF4; experiment: co-IP; HEK293T cells cotransfected with tagged TRAF4 and HDAC6 constructs, Western blot
[1] = biological target: T2, Tumor necrosis factor receptor-associated factor 4 (TRAF4), endogenous (mouse (endogenous in TS^KI cells and E13.5 embryos)); experiment: co-IP; endogenous proteins in TS^KI cell lysates and E13.5 embryo lysates, Western blot

Molecule | binding (HA-TRAF4) | binding [1]
Flag-HDAC6 (from UniProt Q9UBN7 1-1215) (enzyme) | binds | 
B1 |  | binds
